The values that follow come from patent publication US8471021B2, “Sulfur containing heterocycle-fused naphthalene tetracarboxylic acid diimide derivatives, preparation method and use thereof” (Shanghai Institute Of Organic Chemistry, Chinese Academy Of …, priority 2009, dated 2013).

The structures appear in SMILES notation.

A short description of the data set: Organic thin-film transistor (OTFT) devices made by solution process with the compound as semiconducting layer; electrical performance. The following applies: for Average electron mobility μe / Maximum electron mobility μe: room temperature in air, ≧10 devices; for electron mobility / on/off ratio / threshold voltage: transfer curve of one OTFT device (figure legend).

In the case of `CCCCCCCCCCCCC(CCCCCCCCCC)Cn1c(=O)c2c3sc(=C(C#N)C#N)sc3c3c(=O)n(CC(CCCCCCCCCC)CCCCCCCCCCCC)c(=O)c4c5sc(=C(C#N)C#N)sc5c(c1=O)c2c34` (stereo not drawn) [Compound 1, N,N′-di(2-decyltetradecyl)-[2,3-d:6,7-d′]-bi[2-(1,3-dithiacyclopenten-2-ylidene)-2-malononitrile]-naphthalene-1,4,5,8-tetracarboxylic acid diimide], under “annealing 120° C.”, the “Current on/off ratio Ion/Ioff” value is reported as 10^5-10^6, the “Threshold voltage VT” value is −2-4 V, the “Average electron mobility μe” value is “(0.09) cm^2/Vs” and the “Maximum electron mobility μe” value worked out at 0.12 cm^2/Vs. Where the note is “annealing 160° C.”, the “Current on/off ratio Ion/Ioff” value is 10^5-10^6, the “Threshold voltage VT” value is given as −2-5 V, the “Average electron mobility μe” value is on record as “(0.15) cm^2/Vs” and the “Maximum electron mobility μe” value was determined as 0.20 cm^2/Vs. Moreover, where the note is “annealing 180° C.”, the “Current on/off ratio Ion/Ioff” value is given as 10^5-10^6, the “Threshold voltage VT” value is listed as −2-1 V, the “Average electron mobility μe” value is reported as “(0.14) cm^2/Vs” and the “Maximum electron mobility μe” value amounted to 0.15 cm^2/Vs.

In the case of `CCCCCCCCCCC(CCCCCCCC)Cn1c(=O)c2c3sc(=C(C#N)C#N)sc3c3c(=O)n(CC(CCCCCCCC)CCCCCCCCCC)c(=O)c4c5sc(=C(C#N)C#N)sc5c(c1=O)c2c34` (stereo not drawn) [Compound 2, N,N′-di(2-octyldodecyl)-[2,3-d:6,7-d′]-bi[2-(1,3-dithiacyclopenten-2-ylidene)-2-malononitrile]-naphthalene-1,4,5,8-tetracarboxylic acid diimide], the electron mobility was 0.36 cm^2/Vs, the on/off ratio is given as 10^7 and the threshold voltage is 4 V. For the setting “annealing 120° C.”, the “Current on/off ratio Ion/Ioff” value is 10^5-10^6, the “Threshold voltage VT” value is on record as −2-6 V, the “Average electron mobility μe” value was “(0.10) cm^2/Vs” and the “Maximum electron mobility μe” value is recorded as 0.14 cm^2/Vs. Besides, where the note is “annealing 160° C.”, the “Current on/off ratio Ion/Ioff” value was 10^5-10^6, the “Threshold voltage VT” value is reported as 0-8 V, the “Average electron mobility μe” value is given as “(0.20) cm^2/Vs” and the “Maximum electron mobility μe” value was found to be 0.25 cm^2/Vs. Further, where the note is “annealing 180° C.”, the “Current on/off ratio Ion/Ioff” value is on record as 10^5-10^7, the “Threshold voltage VT” value is reported as 0-5 V, the “Average electron mobility μe” value was “(0.32) cm^2/Vs” and the “Maximum electron mobility μe” value was 0.42 cm^2/Vs.

Take `CCCCCCCCC(CCCCCC)Cn1c(=O)c2c3sc(=C(C#N)C#N)sc3c3c(=O)n(CC(CCCCCC)CCCCCCCC)c(=O)c4c5sc(=C(C#N)C#N)sc5c(c1=O)c2c34` (stereo not drawn) [Compound 3, N,N′-di(2-hexyldecyl)-[2,3-d:6,7-d′]-bi[2-(1,3-dithiacyclopenten-2-ylidene)-2-malononitrile]-naphthalene-1,4,5,8-tetracarboxylic acid diimide]: where the note is “annealing 120° C.”, the “Current on/off ratio Ion/Ioff” value is 10^5-10^6, the “Threshold voltage VT” value is on record as 2-10 V, the “Average electron mobility μe” value is listed as “(0.09) cm^2/Vs” and the “Maximum electron mobility μe” value is 0.10 cm^2/Vs. Besides, where the note is “annealing 160° C.”, the “Current on/off ratio Ion/Ioff” value was 10^5-10^6, the “Threshold voltage VT” value was 2-10 V, the “Average electron mobility μe” value was “(0.13) cm^2/Vs” and the “Maximum electron mobility μe” value stood at 0.14 cm^2/Vs. Also, for the setting “annealing 180° C.”, the “Current on/off ratio Ion/Ioff” value is 10^5-10^6, the “Threshold voltage VT” value is given as 5-11 V, the “Average electron mobility μe” value was “(0.17) cm^2/Vs” and the “Maximum electron mobility μe” value is recorded as 0.19 cm^2/Vs.

In the case of `CCCCCCC(CCCCCC)Cn1c(=O)c2c3sc(=C(C#N)C#N)sc3c3c(=O)n(CC(CCCCCC)CCCCCC)c(=O)c4c5sc(=C(C#N)C#N)sc5c(c1=O)c2c34` [Compound 4, N,N′-di(2-hexyloctyl)-[2,3-d:6,7-d′]-bi[2-(1,3-dithiacyclopenten-2-ylidene)-2-malononitrile]-naphthalene-1,4,5,8-tetracarboxylic acid diimide], for the setting “annealing 120° C.”, the “Current on/off ratio Ion/Ioff” value was 10^5-10^6, the “Threshold voltage VT” value is listed as 1-5 V, the “Average electron mobility μe” value is “(0.07) cm^2/Vs” and the “Maximum electron mobility μe” value is reported as 0.08 cm^2/Vs. In addition, under “annealing 160° C.”, the “Current on/off ratio Ion/Ioff” value is 10^5-10^6, the “Threshold voltage VT” value is reported as 3-11 V, the “Average electron mobility μe” value is listed as “(0.15) cm^2/Vs” and the “Maximum electron mobility μe” value is given as 0.16 cm^2/Vs. Also, under “annealing 180° C.”, the “Current on/off ratio Ion/Ioff” value is given as 10^5-10^6, the “Threshold voltage VT” value is reported as 2-10 V, the “Average electron mobility μe” value is given as “(0.20) cm^2/Vs” and the “Maximum electron mobility μe” value amounted to 0.21 cm^2/Vs.

On to `CCCCCCC(CCCC)Cn1c(=O)c2c3sc(=C(C#N)C#N)sc3c3c(=O)n(CC(CCCC)CCCCCC)c(=O)c4c5sc(=C(C#N)C#N)sc5c(c1=O)c2c34` (stereo not drawn) [Compound 5, N,N′-di(2-butyloctyl)-[2,3-d:6,7-d′]-bi[2-(1,3-dithiacyclopenten-2-ylidene)-2-malononitrile]-naphthalene-1,4,5,8-tetracarboxylic acid diimide], for which, where the note is “annealing 120° C.”, the “Current on/off ratio Ion/Ioff” value is on record as 10^5-10^6, the “Average electron mobility μe” value is “(0.11) cm^2/Vs” and the “Maximum electron mobility μe” value was 0.12 cm^2/Vs. Moreover, under “annealing 160° C.”, the “Current on/off ratio Ion/Ioff” value is given as 10^5-10^6, the “Threshold voltage VT” value is listed as 8-14 V, the “Average electron mobility μe” value is reported as “(0.14) cm^2/Vs” and the “Maximum electron mobility μe” value was 0.15 cm^2/Vs. Moreover, under “annealing 180° C.”, the “Current on/off ratio Ion/Ioff” value was 10^6-10^8, the “Threshold voltage VT” value is reported as 7-14 V, the “Average electron mobility μe” value is given as “(0.19) cm^2/Vs” and the “Maximum electron mobility μe” value was determined as 0.21 cm^2/Vs.

With `CCCCCCCCC(CCCCCC)CCn1c(=O)c2c3sc(=C(C#N)C#N)sc3c3c(=O)n(CCC(CCCCCC)CCCCCCCC)c(=O)c4c5sc(=C(C#N)C#N)sc5c(c1=O)c2c34` (stereo not drawn) [Compound 7, N,N′-di(3-hexylundecyl)-[2,3-d:6,7-d′]-bi[2-(1,3-dithiacyclopenten-2-ylidene)-2-malononitrile]-naphthalene-1,4,5,8-tetracarboxylic acid diimide], under “annealing 120° C.”, the “Current on/off ratio Ion/Ioff” value is on record as 10^6-10^7, the “Threshold voltage VT” value is listed as −1-5 V, the “Average electron mobility μe” value is “(0.12) cm^2/Vs” and the “Maximum electron mobility μe” value stood at 0.14 cm^2/Vs. Also, under “annealing 160° C.”, the “Current on/off ratio Ion/Ioff” value is 10^6-10^7, the “Threshold voltage VT” value is recorded as −1-7 V, the “Average electron mobility μe” value is recorded as “(0.24) cm^2/Vs” and the “Maximum electron mobility μe” value worked out at 0.26 cm^2/Vs. Further, for the setting “annealing 180° C.”, the “Current on/off ratio Ion/Ioff” value was 10^6-10^7, the “Threshold voltage VT” value is on record as −2-4 V, the “Average electron mobility μe” value is recorded as “(0.18) cm^2/Vs” and the “Maximum electron mobility μe” value is on record as 0.20 cm^2/Vs.

On to `CCCCCCCCCCC(CCCCCCCC)Cn1c(=O)c2c3sc(=C(C#N)C(=O)OCC)sc3c3c(=O)n(CC(CCCCCCCC)CCCCCCCCCC)c(=O)c4c5sc(=C(C#N)C(=O)OCC)sc5c(c1=O)c2c34` (stereo not drawn) [Compound 9, N,N′-di(2-octyldodecyl)-[2,3-d:6,7-d′]-bi[ethyl 2-(1,3-dithiacyclopenten-2-ylidene)-2-cyanoacetate]-naphthalene-1,4,5,8-tetracarboxylic acid diimide], for which the electron mobility was 10^−3 cm^2/Vs, the on/off ratio was 10^4 and the threshold voltage is 8 V. Also, under “annealing 120° C.”, the “Current on/off ratio Ion/Ioff” value is given as 10^3-10^4, the “Threshold voltage VT” value is 32-45 V, the “Average electron mobility μe” value was “(3 × 10^−4) cm^2/Vs” and the “Maximum electron mobility μe” value is reported as 5 × 10^−4 cm^2/Vs. Moreover, under “annealing 160° C.”, the “Current on/off ratio Ion/Ioff” value was 10^3-10^4, the “Threshold voltage VT” value is reported as 12-35 V, the “Average electron mobility μe” value was “(9 × 10^−4) cm^2/Vs” and the “Maximum electron mobility μe” value is 1.1 × 10^−3 cm^2/Vs. Under “annealing 180° C.”, the “Current on/off ratio Ion/Ioff” value was 10^3-10^4, the “Threshold voltage VT” value was 10-16 V, the “Average electron mobility μe” value is on record as “(2 × 10^−3) cm^2/Vs” and the “Maximum electron mobility μe” value is reported as 4 × 10^−3 cm^2/Vs.

As to `CCCCCCCCCCC(CCCCCCCC)Cn1c(=O)c2c3sc(C#N)c(C#N)sc3c3c(=O)n(CC(CCCCCCCC)CCCCCCCCCC)c(=O)c4c5sc(C#N)c(C#N)sc5c(c1=O)c2c34` (stereo not drawn) [Compound 15, N,N′-di(2-octyl-dodecyl)-[2,3-d:6,7-d′]-bi[1,4-dithiacyclohexadiene-2,3-dicarbonitrile]-naphthalene-1,4,5,8-tetracarboxylic acid diimide], the electron mobility is 0.016 cm^2/Vs, the on/off ratio is 10^6 and the threshold voltage is reported as 10 V. Also, for the setting “annealing 120° C.”, the “Current on/off ratio Ion/Ioff” value is on record as 10^4-10^5, the “Threshold voltage VT” value is on record as 20-40 V, the “Average electron mobility μe” value is listed as “(1.2 × 10^−3) cm^2/Vs” and the “Maximum electron mobility μe” value is 1.5 × 10^−3 cm^2/Vs. In addition, where the note is “annealing 160° C.”, the “Current on/off ratio Ion/Ioff” value is 10^4-10^5, the “Threshold voltage VT” value is 10-35 V, the “Average electron mobility μe” value is recorded as “(1.3 × 10^−2) cm^2/Vs” and the “Maximum electron mobility μe” value is listed as 1.6 × 10^−2 cm^2/Vs. For the same molecule, where the note is “annealing 180° C.”, the “Current on/off ratio Ion/Ioff” value is 10^4-10^5, the “Threshold voltage VT” value is reported as 20-41 V, the “Average electron mobility μe” value is “(5 × 10^−3) cm^2/Vs” and the “Maximum electron mobility μe” value is recorded as 7 × 10^−3 cm^2/Vs.

In the case of `CCCCCCCCCCCCC(CCCCCCCCCC)CN1C(=O)c2c3sc(C#N)c(C#N)c3c3c4c(c5sc(C#N)c(C#N)c5c(c24)C1=O)C(=O)N(CC(CCCCCCCCCC)CCCCCCCCCCCC)C3=O` (stereo not drawn) [Compound 18, N,N′-di(2-decyl-tetradecyl)-[2,3-d:6,7-d′]-bi[α,β-dicyanothiophene]-naphthalene-1,4,5,8-tetracarboxylic acid diimide], the electron mobility was 10^−3 cm^2/Vs, the on/off ratio is on record as 10^5 and the threshold voltage is given as 10 V. Also, where the note is “annealing 120° C.”, the “Current on/off ratio Ion/Ioff” value is given as 10^4-10^5, the “Threshold voltage VT” value is given as 2-11 V, the “Average electron mobility μe” value is on record as “(6 × 10^−4) cm^2/Vs” and the “Maximum electron mobility μe” value is given as 1.2 × 10^−3 cm^2/Vs.
